± gives the uncertainty stated by the source. The uncertainty is large for many entries.
Experiment: self-splicing fitness, log relative to wild type (ln ratio); higher = more splicing; Tetrahymena group I intron in knt gene, E. coli kanamycin selection, DiMSum; sequences stand for … in CUCUCU…GGAGGGAAAAGUUAUCAGGCAUGCACCUGGUAGCUAGUCUUUAAACCAAUAGAUUGCAUCGGUUUAAAAGGCAAGACCGUCAAAUUGCGGGAAAGGGGUCAACAGCCGUUCAGUACCAAGUCUCAGGGGAAACUUUGAGAUGGCCUUGCAAAGGGUAUGGUAAUAAGCUGACGGACAUGGUCCUAACCACGCAGCCAAGUCCUAAGUCAACAGAUCUUCUGUUGAUAUGGAUGCAGUUCACAGACUAAAUGUCGGUCGGGGAAGAUGUAUUCUUCUCAUAAGAUAUAGUCGGACCUCUCCUUAAUGGGAGCUAGCGGAUGAAGUGAUGCAACACUGGAGCCGCUGGGAACUAAUUUGUAUGCGAAAGUAUAUUGAUUAGUUUUGGAGUACUCGUGGUCG
Outline: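 A randomised library covering all eight P1ex-region intron nucleotides was built with the intron in the knt kanamycin-resistance gene on pET-22b(+) and held in E. coli BL21(DE3). Cells were grown overnight at 37°C or 30°C on LB agar, with or without 25 μg/mL kanamycin, plus 100 μg/mL carbenicillin, 50 μM IPTG and 0.2% rhamnose, and pooled colonies were amplicon-sequenced on an Illumina HiSeq 2500. DiMSum fitness is the error-weighted combination of wild-type-normalised replicate fold changes, kanamycin versus none.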

Sequence	self-splicing fitness (ln) (30 °C)	self-splicing fitness (ln) (37 °C)
CCCUAGCAAUAUUACGAGAC	-3.85 ± 0.22	-2.69 ± 0.34
UUGGAGCAAUAUUACGACGU		-0.234 ± 1.4
UAGGAGCAAUAUUACGUGAC		-2.57 ± 0.51
CUUUAGCAAUAUUACGCUUC	-4.03 ± 0.51	
GUCCAGCAAUAUUACGACCG		-2.12 ± 0.78
CUAGAGCAAUAUUACGCACA		-0.44 ± 1.4
CCGGAGCAAUAUUACGUUUA	-3.23 ± 0.6	
UACUAGCAAUAUUACGCCAC	-4.89 ± 0.59	-2.43 ± 0.64
UCGGAGCAAUAUUACGCCAA		-1.78 ± 0.58
UUUUAGCAAUAUUACGAUUC	-3.21 ± 1.1	-0.988 ± 0.54
ACGAAGCAAUAUUACGACAU	-0.681 ± 0.011	-0.109 ± 0.032
AUCGAGCAAUAUUACGCCAG		-2.23 ± 0.8
UUCUAGCAAUAUUACGCUUU	-3.89 ± 0.26	-1.82 ± 0.22
UCGGAGCAAUAUUACGCCUG		-2.84 ± 0.75
CGGGAGCAAUAUUACGAUCG	-3.42 ± 0.6	-3.62 ± 0.73
UCAGAGCAAUAUUACGUUGC	-4.57 ± 0.73	
CAUGAGCAAUAUUACGCGAC	-3.71 ± 0.52	
UACUAGCAAUAUUACGACGG	-0.517 ± 0.12	-0.301 ± 0.15
UGUCAGCAAUAUUACGCCAC		-1.41 ± 0.61
UCCGAGCAAUAUUACGAUCA	-4.24 ± 0.59	
ACCGAGCAAUAUUACGCAUC		-2.28 ± 0.56
UUAAAGCAAUAUUACGCUUC		-1.49 ± 0.61
GAGUAGCAAUAUUACGAGGC	-2.62 ± 1.1	
CGAAAGCAAUAUUACGUCAC	-4.66 ± 0.51	
UGUAAGCAAUAUUACGCCGC	-2.61 ± 0.83	-1.09 ± 0.92

Another view of part of the listing above.
Sequence,self-splicing fitness (ln) (30 °C),self-splicing fitness (ln) (37 °C)
CCGGAGCAAUAUUACGUUUA,-3.23 ± 0.6,
UACUAGCAAUAUUACGCCAC,-4.89 ± 0.59,-2.43 ± 0.64
UCGGAGCAAUAUUACGCCAA,,-1.78 ± 0.58
UUUUAGCAAUAUUACGAUUC,-3.21 ± 1.1,-0.988 ± 0.54
ACGAAGCAAUAUUACGACAU,-0.681 ± 0.011,-0.109 ± 0.032

A different layout for some results above.
ACCGAGCAAUAUUACGCAUC
  self-splicing fitness (ln) (37 °C) = -2.28 ± 0.56
UUAAAGCAAUAUUACGCUUC
  self-splicing fitness (ln) (37 °C) = -1.49 ± 0.61

Later entries:

Sequence	self-splicing fitness (ln) (30 °C)	self-splicing fitness (ln) (37 °C)
AUGGAGCAAUAUUACGAAGC	-3.57 ± 0.73	-2.16 ± 0.79
UUCGAGCAAUAUUACGCCCG		-1.11 ± 0.73
CUCCAGCAAUAUUACGAAGA	-3.9 ± 0.73	
UCUUAGCAAUAUUACGGCGC	-2.61 ± 0.39	-2.53 ± 0.64
CCGCAGCAAUAUUACGCGUU	-3.51 ± 0.14	-2.29 ± 0.14
CUGUAGCAAUAUUACGCUCU		-3.26 ± 0.6
CCAUAGCAAUAUUACGAAGC		-2.39 ± 0.5
CGUAAGCAAUAUUACGACAA	-4 ± 0.51	
GGUGAGCAAUAUUACGCACA	-1.07 ± 0.15	-0.679 ± 0.17
UAUGAGCAAUAUUACGACAU	-3.523 ± 0.029	-2.56 ± 0.042
CGCUAGCAAUAUUACGUCGG	-1.6 ± 0.075	-0.631 ± 0.12
UGGGAGCAAUAUUACGGUUC	-3.42 ± 0.73	
ACGGAGCAAUAUUACGUUAC	-4.94 ± 0.51	
CUAGAGCAAUAUUACGUAGC	-3.23 ± 0.53	
AAAGAGCAAUAUUACGCAAU	-3.59 ± 0.21	-1.65 ± 0.16
CUUAAGCAAUAUUACGUAGU	-3.14 ± 0.13	-2.3 ± 0.18
AGGGAGCAAUAUUACGGAUA		-1.98 ± 0.58
UGGCAGCAAUAUUACGGCUU	-0.209 ± 0.075	0.316 ± 0.098
CGGUAGCAAUAUUACGUGAC	-4.99 ± 0.59	
GGGAAGCAAUAUUACGAAGG	-4.37 ± 1	-2.99 ± 0.6
CAUUAGCAAUAUUACGUUCC		-1.9 ± 0.64
AGAGAGCAAUAUUACGUAUC	-2.79 ± 1.2	
CUUUAGCAAUAUUACGACGC	-2.52 ± 0.8	
GACGAGCAAUAUUACGAUAA	-4.47 ± 0.72	
UUGUAGCAAUAUUACGAGCG	-1.01 ± 0.14	-0.454 ± 0.28

Sequence	self-splicing fitness (ln) (30 °C)	self-splicing fitness (ln) (37 °C)
CAGGAGCAAUAUUACGACGA		-1.62 ± 1.1
CACUAGCAAUAUUACGCCUC	-3.51 ± 0.73	
UUCUAGCAAUAUUACGUCAU		-2.87 ± 0.54
GCAGAGCAAUAUUACGUCGC	-4.17 ± 1.1	-3.4 ± 1
UCCGAGCAAUAUUACGCACG		-3.3 ± 1
GCGUAGCAAUAUUACGUCAA	-2.73 ± 0.53	
UCUUAGCAAUAUUACGUCAU		-1.57 ± 0.59
UUGCAGCAAUAUUACGAAUU	-2.18 ± 0.18	-0.985 ± 0.19
UCGCAGCAAUAUUACGGAUC		-3.69 ± 0.73
UAGUAGCAAUAUUACGAAAA	-1.55 ± 0.76	-2.57 ± 1.1
AGAGAGCAAUAUUACGAAGA		-0.681 ± 1.4
GAUGAGCAAUAUUACGCUCC		-2.64 ± 0.54
GUCUAGCAAUAUUACGGCGC	-0.167 ± 0.1	0.985 ± 0.12
CAAUAGCAAUAUUACGAGGC	-3.6 ± 0.33	-1.44 ± 0.31
GGGAAGCAAUAUUACGACGC	-0.0345 ± 0.14	-0.0751 ± 0.18
CUUGAGCAAUAUUACGGACA		-2.65 ± 0.54
GGUCAGCAAUAUUACGCAGA	-2.7 ± 0.76	
AGCCAGCAAUAUUACGAGCA	-0.932 ± 0.11	0.49 ± 0.14
CUUGAGCAAUAUUACGUUCC		-1.98 ± 0.79
CGGGAGCAAUAUUACGGACC	-4.05 ± 1	-1.32 ± 0.87
AGGGAGCAAUAUUACGCAGA	-1.77 ± 0.68	
CGGGAGCAAUAUUACGUCUU	-4.19 ± 0.59	-0.499 ± 0.36
AGUGAGCAAUAUUACGCCCG		-1.4 ± 0.9
GGUUAGCAAUAUUACGCCGC		-0.888 ± 0.63
AUAUAGCAAUAUUACGUUGU		-4.04 ± 0.51

Sequence	self-splicing fitness (ln) (30 °C)	self-splicing fitness (ln) (37 °C)
AAAGAGCAAUAUUACGAGAA		-1.62 ± 1.1
GUGUAGCAAUAUUACGCGGA	-1.73 ± 0.56	
CCCGAGCAAUAUUACGCUCC	-2.93 ± 0.54	-2.23 ± 0.79
AGCGAGCAAUAUUACGAGAC	-3.31 ± 0.6	-3.4 ± 0.73
GGAGAGCAAUAUUACGACAA	-2.09 ± 1.4	
GUUGAGCAAUAUUACGUAUU		-2.8 ± 1
UGGGAGCAAUAUUACGCUUU	-4.91 ± 1	
GCCCAGCAAUAUUACGCCGU	-0.724 ± 0.092	-0.492 ± 0.094
UCCUAGCAAUAUUACGCUUU	-4.44 ± 0.72	
GGGCAGCAAUAUUACGAAUU	-0.318 ± 0.12	-0.166 ± 0.17
UCGGAGCAAUAUUACGAAAG	-4.13 ± 0.76	
CACGAGCAAUAUUACGCCCU		-0.633 ± 0.67
UGGGAGCAAUAUUACGUAGU	-4.19 ± 0.53	
GACGAGCAAUAUUACGUGAC	-2.77 ± 0.31	-1.48 ± 0.26
UGCUAGCAAUAUUACGAUCC		-0.932 ± 0.76
GAUGAGCAAUAUUACGCGUC		-1.37 ± 1.2
AGGGAGCAAUAUUACGCUUG		-1.37 ± 0.87
GCAGAGCAAUAUUACGCCCC		-0.0848 ± 1.2
GUAUAGCAAUAUUACGGGAG	-3.39 ± 0.55	
UGCCAGCAAUAUUACGCCUC	-3.13 ± 1	-1.78 ± 1.2
AUUGAGCAAUAUUACGGGAC		-3.06 ± 0.52
CGUGAGCAAUAUUACGCUCU		-3.33 ± 1
GAGCAGCAAUAUUACGAGGC		-1.54 ± 1.2
UAGUAGCAAUAUUACGAAGC	-5.23 ± 1	
CUCGAGCAAUAUUACGCCCC		-0.595 ± 0.82

Sequence	self-splicing fitness (ln) (30 °C)	self-splicing fitness (ln) (37 °C)
UGUCAGCAAUAUUACGCACA	-0.467 ± 0.083	-0.355 ± 0.093
GCGAAGCAAUAUUACGAUGC	-3.55 ± 0.76	-3.06 ± 0.61
UCUGAGCAAUAUUACGGCCC	-0.638 ± 0.93	-0.906 ± 0.61
CCGUAGCAAUAUUACGGACA		-1.82 ± 0.52
CAGGAGCAAUAUUACGUAGC	-5.08 ± 1	
GGUGAGCAAUAUUACGUCGC		-0.663 ± 0.68
UGGGAGCAAUAUUACGCCUC		-2.99 ± 1
UCCUAGCAAUAUUACGACAC		-0.693 ± 0.58
GCUGAGCAAUAUUACGGGCU		-3.34 ± 0.52
CGGGAGCAAUAUUACGAGUA		-2.52 ± 0.55
GUCCAGCAAUAUUACGGCCC	-3.44 ± 0.62	-0.415 ± 0.87
CAUGAGCAAUAUUACGGACC	-3.25 ± 0.54	-1.5 ± 0.69
GGGGAGCAAUAUUACGAGUG		-2.52 ± 0.66
UUAGAGCAAUAUUACGCCCU	-3.06 ± 1.1	
UGUAAGCAAUAUUACGGAGC		-2.2 ± 0.54
UGGCAGCAAUAUUACGCUGC		-2.96 ± 0.77
AGGGAGCAAUAUUACGAAUU	-3.85 ± 0.63	
GUCGAGCAAUAUUACGAAUG	-4.06 ± 0.35	-0.777 ± 0.2
UUCCAGCAAUAUUACGUUCU	-4.85 ± 0.51	
GACUAGCAAUAUUACGUAAG	-0.946 ± 0.087	-0.709 ± 0.11
UCAUAGCAAUAUUACGACUU	-3.87 ± 0.28	-2.42 ± 0.39
UUUAAGCAAUAUUACGGCCC		-1.94 ± 0.81
CGUGAGCAAUAUUACGAUUA	-2.84 ± 0.56	

From the supplement of paper PMC7877785
